Results deposited as PubChem BioAssay AID1224830 (NIAID, 2016)
Assay: 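Regulators of TLR4 signalling towards TNF-alpha in macrophage-like cells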 (primary screen). Cells: human THP-1 monocytic leukaemia cells, TNF dual-luciferase reporter clone, PMA-differentiated to macrophage-like cells. Reagent: siRNA pool against human genes, 50 nM. Timing: LPS for 4 h, given about 3 days after siRNA transfection. Conditions: bacterial LPS (TLR4 ligand), 10 ng/ml. Detection: 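Ratio of firefly to renilla light, scaled to the plate median and expressed as a robust z-score per replicate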. Reading the numbers: TNF reporter robust z-score: higher = stronger TNF reporter response to LPS. Hit rule: 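Each well counts as active if its z-score is over 2.8 or under -1.5; controls are left without a call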.
In all, the deposit lists about 18,000 reagents; this is an unselected part. Of all reagents, about 2,900 (16%) were called active. 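Calls are made per well; low scores hint the gene aids the LPS response, high scores that it dampens it.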 Repeated entries: four replicate wells of each siRNA pool.

The first 11 entries, to show the layout:
target gene	TNF reporter robust z-score	activity call
UNC5D (GeneID 137970)	-0.67	inactive
UNC5D (GeneID 137970)	0.44	inactive
UNC5D (GeneID 137970)	-0.68	inactive
UNC5D (GeneID 137970)	-0.88	inactive
FBXO28 (GeneID 23219)	0.63	inactive
FBXO28 (GeneID 23219)	0.5	inactive
FBXO28 (GeneID 23219)	0.36	inactive
FBXO28 (GeneID 23219)	0.73	inactive
AKAP8 (GeneID 10270)	-0.13	inactive
AKAP8 (GeneID 10270)	0.68	inactive
AKAP8 (GeneID 10270)	-0.19	inactive

Results, from the start:
target gene	TNF reporter robust z-score	activity call
UNC5D (GeneID 137970)	-0.67	inactive
UNC5D (GeneID 137970)	0.44	inactive
UNC5D (GeneID 137970)	-0.68	inactive
UNC5D (GeneID 137970)	-0.88	inactive
FBXO28 (GeneID 23219)	0.63	inactive
FBXO28 (GeneID 23219)	0.5	inactive
FBXO28 (GeneID 23219)	0.36	inactive
FBXO28 (GeneID 23219)	0.73	inactive
AKAP8 (GeneID 10270)	-0.13	inactive
AKAP8 (GeneID 10270)	0.68	inactive
AKAP8 (GeneID 10270)	-0.19	inactive
AKAP8 (GeneID 10270)	0.16	inactive
TRIM46 (GeneID 80128)	0.79	inactive
TRIM46 (GeneID 80128)	3.2	active
TRIM46 (GeneID 80128)	-1.74	active
MDP1 (GeneID 145553)	0.08	inactive
MDP1 (GeneID 145553)	-0.09	inactive
MDP1 (GeneID 145553)	0.8	inactive
MDP1 (GeneID 145553)	0	inactive
CYP8B1 (GeneID 1582)	1.35	inactive
CYP8B1 (GeneID 1582)	1.85	inactive
CYP8B1 (GeneID 1582)	0.85	inactive
CYP8B1 (GeneID 1582)	-0.15	inactive
XRCC6 (GeneID 2547)	-1.77	active
XRCC6 (GeneID 2547)	-1.61	active
XRCC6 (GeneID 2547)	-0.71	inactive
XRCC6 (GeneID 2547)	-0.77	inactive
DMAC1 (GeneID 90871)	-0.42	inactive
DMAC1 (GeneID 90871)	-0.72	inactive
DMAC1 (GeneID 90871)	-0.76	inactive
SNTG1 (GeneID 54212)	-1.09	inactive
SNTG1 (GeneID 54212)	-1.01	inactive
SNTG1 (GeneID 54212)	-0.44	inactive
SNTG1 (GeneID 54212)	0.13	inactive
CSF1R (GeneID 1436)	-1.85	active
CSF1R (GeneID 1436)	-1.25	inactive
CSF1R (GeneID 1436)	-1.75	active
CSF1R (GeneID 1436)	-0.92	inactive
PTPRJ (GeneID 5795)	0.34	inactive
PTPRJ (GeneID 5795)	0	inactive
PTPRJ (GeneID 5795)	0.02	inactive
PTPRJ (GeneID 5795)	-0.01	inactive
ZNF436 (GeneID 80818)	-0.29	inactive
ZNF436 (GeneID 80818)	3.01	active
ZNF436 (GeneID 80818)	1.42	inactive
ZNF436 (GeneID 80818)	3.93	active
NIF3L1 (GeneID 60491)	0.84	inactive
NIF3L1 (GeneID 60491)	1.15	inactive
NIF3L1 (GeneID 60491)	1.55	inactive
NIF3L1 (GeneID 60491)	0.83	inactive
COPS3 (GeneID 8533)	3.47	active
COPS3 (GeneID 8533)	0.94	inactive
COPS3 (GeneID 8533)	1	inactive
COPS3 (GeneID 8533)	1.64	inactive
TRIR (GeneID 79002)	-0.94	inactive
TRIR (GeneID 79002)	-0.61	inactive
TRIR (GeneID 79002)	-0.19	inactive
TRIR (GeneID 79002)	0.1	inactive
AGBL3 (GeneID 340351)	-0.9	inactive
AGBL3 (GeneID 340351)	1.29	inactive
AGBL3 (GeneID 340351)	0.45	inactive
AGBL3 (GeneID 340351)	0.85	inactive
SRF (GeneID 6722)	-0.32	inactive
SRF (GeneID 6722)	-0.04	inactive
SRF (GeneID 6722)	-0.33	inactive
SRF (GeneID 6722)	-0.01	inactive
PEX14 (GeneID 5195)	0.2	inactive
PEX14 (GeneID 5195)	0.06	inactive
PEX14 (GeneID 5195)	1.93	inactive
PEX14 (GeneID 5195)	0.67	inactive
BPY2 (GeneID 9083)	6.43	active
BPY2 (GeneID 9083)	1.35	inactive
BPY2 (GeneID 9083)	-0.31	inactive
BPY2 (GeneID 9083)	0.08	inactive
RMI2 (GeneID 116028)	-0.31	inactive
RMI2 (GeneID 116028)	0.04	inactive
RMI2 (GeneID 116028)	0.02	inactive
RMI2 (GeneID 116028)	0.24	inactive
RPL10L (GeneID 140801)	0.32	inactive
RPL10L (GeneID 140801)	-0.19	inactive
RPL10L (GeneID 140801)	-0.3	inactive
RPL10L (GeneID 140801)	-0.02	inactive
AKAP12 (GeneID 9590)	0.24	inactive
AKAP12 (GeneID 9590)	-0.56	inactive
AKAP12 (GeneID 9590)	-0.83	inactive
AKAP12 (GeneID 9590)	-0.27	inactive
EGLN1 (GeneID 54583)	1.69	inactive
EGLN1 (GeneID 54583)	0.69	inactive
EGLN1 (GeneID 54583)	1.04	inactive
EGLN1 (GeneID 54583)	1.33	inactive
ST7 (GeneID 7982)	-0.27	inactive
ST7 (GeneID 7982)	-1.46	inactive
ST7 (GeneID 7982)	-0.87	inactive
ST7 (GeneID 7982)	-0.49	inactive
GRIA4 (GeneID 2893)	1.33	inactive
GRIA4 (GeneID 2893)	-0.56	inactive
GRIA4 (GeneID 2893)	0.31	inactive
GRIA4 (GeneID 2893)	3.11	active
ACLY (GeneID 47)	-0.4	inactive
ACLY (GeneID 47)	-0.71	inactive
ACLY (GeneID 47)	-0.66	inactive
ACLY (GeneID 47)	-0.93	inactive
COL11A1 (GeneID 1301)	0.85	inactive
COL11A1 (GeneID 1301)	1.07	inactive
COL11A1 (GeneID 1301)	1.19	inactive
COL11A1 (GeneID 1301)	1.43	inactive
ADIG (GeneID 149685)	0.05	inactive
ADIG (GeneID 149685)	-0.34	inactive
ADIG (GeneID 149685)	0.12	inactive
ADIG (GeneID 149685)	0.36	inactive
